Reference: the supplement of paper PMC4683952
The other results are listed elsewhere or left out. Rule as the data show it: active = 2 or more and inactive = the rest. Most values lie within the scatter of the assay; repeated measurements hardly agree.

System: Lgr5 (MarsCy1-Lgr5-EGFP, U2OS)
Assay: cell-surface Lgr5 expression (SCi1 fluorescence, background-subtracted) relative to WT DMSO (fold of DMSO control); higher = more Lgr5 at the plasma membrane
Conditions: U2OS MarsCy1-Lgr5-EGFP stable; treatment time: overnight; library: ActiProbe-5K (TimTec); 25 µM

cell-surface Lgr5 expression, inactive:
CCCC(=O)OC1CC(n2cc(C)c(=O)[nH]c2=O)OC1CO (stereo not given) 0.961
NC(=S)N/N=C/c1ccc(Cl)cc1Cl 1.62
O=c1cc(O)c2sc3nc4c(c(C(F)(F)F)c3c2[nH]1)CCCCC4 1.35
CN(C)CCN1C(=O)C(O)=C(C(=O)c2cccs2)C1c1ccco1 (stereo not given) 1.2
CCN(C(=O)C(C)C)C1CCCCC1 1
CC1(C)C=C(c2ccc(C3=CC(C)(C)NC(C)(C)C3)s2)CC(C)(C)N1 0.771
CCOC(=O)c1sc(NC(=O)C(C)C)c(C(=O)OCC)c1C 1.29
Cc1c(-c2cc(C(F)F)c3c(C4CC4)nn(C)c3n2)cnn1C 1.24
O=C(CCn1nc(C(F)(F)F)c(Cl)c1C1CC1)Nc1nnc(C2CC2)s1 1.22
N#Cc1c(SCC(=O)NC2CC2)sc2c(O)nc(=O)[nH]c12 1.19
Cc1cc(/C=C(/C#N)C(N)=S)c(C)s1 1.13
Fc1ccc(-c2nc(-c3ccc4c(c3)OCO4)no2)cc1 0.919
CCn1c(Cn2cnc([N+](=O)[O-])n2)nnc1SC 1.14
O=C(CSc1nc2[nH]c(=O)cc(O)c2s1)C12CC3CC(CC(C3)C1)C2 1.19
CCOC(=O)c1cc(CNC2CCS(=O)(=O)C2)on1 (stereo not given) 1.16
S=C1NC(c2ccc(Br)cc2)=CC(c2ccccc2Cl)N1 (stereo not given) 0.977
CC(C)(C)c1cc(Br)cc(SSc2cc(Br)cc(C(C)(C)C)c2O)c1O 0.523
COc1cccc(OC(F)(F)F)c1 0.813
CCSc1nnc(C)c2ccccc12 1.23
c1cc(-c2nnc(CC34CC5CC(CC(C5)C3)C4)o2)ccn1 1.28
CC(=O)Nc1nonc1NC(=O)CSC1=NCCS1 1.1
O=C(NCCCn1ccnc1)c1nc(-c2ccc(Br)o2)no1 0.964
CC1CCC(C(C)C)C(OC(=O)CSc2n[nH]c(=O)[nH]c2=O)C1 (stereo not given) 1.31
Sc1nnc(-c2ccccn2)n1/N=C/c1cccnc1 1.19
CCCCCC1(C)NC(=S)N(c2ccc(Cl)cc2)N1 (stereo not given) 0.959
CN1CCN(c2ccc(Nc3cn[nH]c(=O)n3)cc2)CC1 1.14
O=S1(=O)N=C(N2CCCc3ccccc32)c2ccccc21 1.27
CC(C)(C)C1CCc2c(sc3nn[nH]c(=O)c23)C1 (stereo not given) 1.16
Oc1ccc(/C=N/Nc2nnn[nH]2)cc1O 1.26
COc1ccc(S(=O)(=O)N2CCCC2)c(Cl)c1Cl 1.56
O=C1NC(=O)C2(COC(c3ccccc3)OC2)S1 (stereo not given) 1.32
Cc1ccc(S(=O)(=O)O/N=C/c2ccc(Br)cc2)cc1 1.2
C1=Nc2cccc3cccc(c23)N1 0.796
Brc1ccc(NCn2cnc3ccccc32)cc1 1.09
C=CCOc1cc(=O)oc2ccccc12 1.25
Cc1c(Cn2cc(N)cn2)cnn1C 1.1
Cc1sc2nc3n(c(=O)c2c1C)CCC3 1
Cc1cc(Sc2cc(C)c(O)c(C(C)(C)C)c2)cc(C(C)(C)C)c1O 0.716
CC(=O)C1=C(O)C=C(c2ccco2)CC1c1ccco1 (stereo not given) 1.3
NC(=S)NNC(=S)Nc1ccc(F)cc1 1.15
Cc1cc(C(=O)O)c(S(C)(=O)=O)s1.O 1.09
O=C(O)CN1CC2([N+](=O)[O-])C=CCC([N+](=O)[O-])(C1)C2 (stereo not given) 1.03
Cc1cc(-c2nnc(-c3cccs3)o2)n(C)n1 1.04
O=c1cc2oc3cc(O)c(-c4ccc(O)cc4O)cc3nc-2cc1-c1ccc(O)cc1O 1.3
O=[N+]([O-])/C=C\c1c2ccccc2cc2ccccc12 0.21
O=C1CCNc2c(Br)cc(Br)cc2N1 0.975
O=c1c(O)c(-c2ccc(O)c(O)c2)oc2ccc(O)cc12 0.664
Nc1cnc2ccccc2c1 0.883
c1ccc(-n2ncc(-c3nnn[nH]3)n2)cc1 1.03
N/N=C1\c2ccccc2-c2nc3ccccc3nc21 1.15
Nc1cnn(COc2ccc(F)cc2Cl)c1 1.06
CC(=C/c1ccco1)/C=N/NC(=O)c1cnccn1 0.491
Cn1ncc(Cl)c1C(=O)NCCCn1cc(Cl)cn1 1.28
Cc1occc1-c1nc(-c2cccs2)no1 1.02
CCCCC1CN2CCc3c([nH]c4ccccc34)C2(C)C1 (stereo not given) 1.1
CN1C(=O)C2C(N=CN2CCCO)N(C)C1=O (stereo not given) 1.1
O=S(=O)(O)C(O)c1ccccn1 (stereo not given) 1.14
Sc1nc2cc(Cl)ccc2[nH]1 1.01
Clc1ccc(-c2nnc(/C=C\c3cccc4ccccc34)o2)c(Cl)c1 1.06
CC1C/C(=C/c2ccco2)C(C)N(C)C1 (stereo not given) 1.04
O=C1c2ccccc2-c2nc3ccccc3cc21 1.58
Cc1n[n+]2c(C(=O)O)c(C)[n-]n2c1[N+](=O)[O-] 1.15
Cn1nnnc1SCc1csc(/C=C(/C#N)C(N)=S)c1 1.12
O=C/C(=C\O)c1ccc2ccccc2n1 1.08
N#Cc1c(N)sc2c1CCCCC2 1.22
Cc1n[nH]c(C)c1C(C)N.Cl (stereo not given) 1.25
c1ccc(C(Sc2nc3ccccc3o2)c2ccccc2)cc1 0.92
Nc1cc2c(cc1N)OCCO2 1.83
S=c1n(C2c3ccccc3Oc3ccccc32)nc(-c2ccccc2)n1-c1ccccc1 1.18
CN(C)/C=N/CCn1cnc2c1c(=O)n(C)c(=O)n2C 1.01
CC1CCc2c(sc3nc[nH]c(=O)c23)C1 (stereo not given) 0.946
CCCc1sc(-n2c(C)ccc2C)c(C#N)c1C 1.28
Cc1nnc2nnc3c4ccccc4ccc3n12 1.54
Cc1cc(C)n(-c2ccc3n[nH]c(=O)n3n2)n1 1.48
O/N=C(/c1ccc(Cl)cc1)c1ccco1 0.864
CN1CCN(c2nc3c(=O)[nH]c(N)nc3n2C2OC(CO)C(O)C2O)CC1 (stereo not given) 1.09
COC(=O)C1CN(C)CCC1=O.Cl (stereo not given) 1.13
COc1ccc(O)c(-c2c[nH]c(=S)nc2-c2cc(OC)ccc2OC)c1 1.39
NS(=O)(=O)c1ccc2oc(CCl)nc2c1 1.1
COCCN1C(=O)/C(=C/c2cccs2)SC1=S 1.23
O=S(=O)(c1cc(Cl)ccc1Cl)N1CCc2ccccc2C1 1.26
N#CCc1nc2ccccc2s1 1.02
Oc1c(Br)cc(Br)cc1/C=N/n1cnnc1 0.76
COc1cc(NS(=O)(=O)c2ccc(N)cc2)nc(OC)n1 1.33
C1CCN(Cc2nnn[nH]2)CC1 1.12
C(=N/N1CCN(c2ccccn2)CC1)/c1cccc2ccccc12 0.848
COc1ccc(OC)c(NS(=O)(=O)c2ccc(OC)c3ncccc23)c1 1.13
O=C1C(=C2C/C(=N/O)c3ccccc32)C(=O)c2ccccc21 1.13
Cc1nc(O)nc(O)c1NS(=O)(=O)c1cccs1 0.899
N#Cc1c(C(F)(F)F)cc(-c2cccs2)[nH]c1=S 1.28
Cn1c(CSc2nncc3ccccc23)nc2ccccc21 1.34
COc1ccccc1NS(=O)(=O)c1cccc2nsnc12 1.22
O=C(O)c1ncnc2[nH]cnc12 1.2
O=C(O)/C=C/C(=O)C(=O)N1CCCC(C(F)(F)F)C1 (stereo not given) 1.16
N=c1[nH]c(=S)ss1 1.76
Nc1cc(F)c(C(F)(F)F)c(F)c1 1.15
O=C(CSC1=NC2CCCCC2N1)N1CCOCC1 (stereo not given) 1.19
O=[N+]([O-])c1cc(-n2cnnn2)ccc1N1CCOCC1 1.14
CC(CNC(=O)C1CC1)OC12CC3CC(CC(C3)C1)C2 (stereo not given) 1.02
CC(C)CCOC(=O)CCSc1n[nH]c(=O)[nH]c1=O 1.43
N#Cc1sc2sc(C#N)c(N)c2c1N 1.2
CCN1CN(C2CCCCC2)CNC1=S 1.16
CN(C)S(=O)(=O)N1CCCCC1 0.885
c1cc(CCc2ccncc2)ccn1 1.13
Cc1ncnc2c1c(C)nn2C 1.14
O=C1NC(=S)S/C1=C1\C(=O)Nc2ccccc21 0.996
COc1ccc(Oc2ccc(Cl)c(Cl)c2)c(N)c1 0.839
O=C1CN(c2ccccc2)/C(=N\c2ccccc2)S1 1.25
Fc1ccc2c(c1)[C@@H]1C=CC[C@@H]1[C@H](c1ccccc1Cl)N2 1.07
O=C1Nc2ccc([N+](=O)[O-])cc2/C1=C1/S/C(=N\c2ccccc2)N(c2ccccc2)C1=O 1.18

Of the compounds above, 15 contain two or more sulfur atoms:
cell-surface Lgr5 expression, inactive:
N#Cc1c(SCC(=O)NC2CC2)sc2c(O)nc(=O)[nH]c12 1.19
Cc1cc(/C=C(/C#N)C(N)=S)c(C)s1 1.13
O=C(CSc1nc2[nH]c(=O)cc(O)c2s1)C12CC3CC(CC(C3)C1)C2 1.19
CC(C)(C)c1cc(Br)cc(SSc2cc(Br)cc(C(C)(C)C)c2O)c1O 0.523
CC(=O)Nc1nonc1NC(=O)CSC1=NCCS1 1.1
NC(=S)NNC(=S)Nc1ccc(F)cc1 1.15
Cc1cc(C(=O)O)c(S(C)(=O)=O)s1.O 1.09
Cn1nnnc1SCc1csc(/C=C(/C#N)C(N)=S)c1 1.12
COCCN1C(=O)/C(=C/c2cccs2)SC1=S 1.23
Cc1nc(O)nc(O)c1NS(=O)(=O)c1cccs1 0.899
N#Cc1c(C(F)(F)F)cc(-c2cccs2)[nH]c1=S 1.28
COc1ccccc1NS(=O)(=O)c1cccc2nsnc12 1.22
N=c1[nH]c(=S)ss1 1.76
N#Cc1sc2sc(C#N)c(N)c2c1N 1.2
O=C1NC(=S)S/C1=C1\C(=O)Nc2ccccc21 0.996

3 neighbouring records out of the list so far, for reference:
cell-surface Lgr5 expression, inactive:
CCCc1sc(-n2c(C)ccc2C)c(C#N)c1C 1.28
Cc1nnc2nnc3c4ccccc4ccc3n12 1.54
Cc1cc(C)n(-c2ccc3n[nH]c(=O)n3n2)n1 1.48
